Results reported in article doi:10.1101/634733.
These are yes or no findings as the source states them, for the method shown. Binding seen in cells or lysates may run through a third protein. Some results given as binding are weak or reduced against the parent protein; the word gives no strength. Tags and fused reporters may be left off the sequences shown.

Sequences of proteins named here, by UniProt entry; tags and fusion partners are left off.
UniProt P27361: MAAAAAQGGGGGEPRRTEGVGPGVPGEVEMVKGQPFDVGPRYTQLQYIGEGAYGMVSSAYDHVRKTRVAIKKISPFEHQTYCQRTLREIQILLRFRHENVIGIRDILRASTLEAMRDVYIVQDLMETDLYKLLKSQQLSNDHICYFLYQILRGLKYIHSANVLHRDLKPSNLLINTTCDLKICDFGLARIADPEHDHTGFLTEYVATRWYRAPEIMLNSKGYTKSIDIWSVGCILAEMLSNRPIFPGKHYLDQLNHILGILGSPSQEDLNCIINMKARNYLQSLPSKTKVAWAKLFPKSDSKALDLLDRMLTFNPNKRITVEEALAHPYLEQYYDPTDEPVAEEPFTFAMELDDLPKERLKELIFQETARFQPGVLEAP
UniProt P14635: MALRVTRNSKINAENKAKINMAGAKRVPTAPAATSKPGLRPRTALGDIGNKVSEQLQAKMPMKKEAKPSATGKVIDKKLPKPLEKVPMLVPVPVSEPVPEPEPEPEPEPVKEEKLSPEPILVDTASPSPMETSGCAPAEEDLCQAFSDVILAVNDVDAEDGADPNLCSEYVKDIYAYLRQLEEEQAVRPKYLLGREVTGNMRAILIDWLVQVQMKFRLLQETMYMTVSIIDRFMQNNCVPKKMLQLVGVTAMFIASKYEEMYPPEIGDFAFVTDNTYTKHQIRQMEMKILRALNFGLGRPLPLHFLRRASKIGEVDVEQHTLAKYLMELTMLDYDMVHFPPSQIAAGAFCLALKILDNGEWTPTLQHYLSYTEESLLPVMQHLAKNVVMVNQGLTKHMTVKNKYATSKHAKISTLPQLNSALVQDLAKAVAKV
UniProt Q8TDY2: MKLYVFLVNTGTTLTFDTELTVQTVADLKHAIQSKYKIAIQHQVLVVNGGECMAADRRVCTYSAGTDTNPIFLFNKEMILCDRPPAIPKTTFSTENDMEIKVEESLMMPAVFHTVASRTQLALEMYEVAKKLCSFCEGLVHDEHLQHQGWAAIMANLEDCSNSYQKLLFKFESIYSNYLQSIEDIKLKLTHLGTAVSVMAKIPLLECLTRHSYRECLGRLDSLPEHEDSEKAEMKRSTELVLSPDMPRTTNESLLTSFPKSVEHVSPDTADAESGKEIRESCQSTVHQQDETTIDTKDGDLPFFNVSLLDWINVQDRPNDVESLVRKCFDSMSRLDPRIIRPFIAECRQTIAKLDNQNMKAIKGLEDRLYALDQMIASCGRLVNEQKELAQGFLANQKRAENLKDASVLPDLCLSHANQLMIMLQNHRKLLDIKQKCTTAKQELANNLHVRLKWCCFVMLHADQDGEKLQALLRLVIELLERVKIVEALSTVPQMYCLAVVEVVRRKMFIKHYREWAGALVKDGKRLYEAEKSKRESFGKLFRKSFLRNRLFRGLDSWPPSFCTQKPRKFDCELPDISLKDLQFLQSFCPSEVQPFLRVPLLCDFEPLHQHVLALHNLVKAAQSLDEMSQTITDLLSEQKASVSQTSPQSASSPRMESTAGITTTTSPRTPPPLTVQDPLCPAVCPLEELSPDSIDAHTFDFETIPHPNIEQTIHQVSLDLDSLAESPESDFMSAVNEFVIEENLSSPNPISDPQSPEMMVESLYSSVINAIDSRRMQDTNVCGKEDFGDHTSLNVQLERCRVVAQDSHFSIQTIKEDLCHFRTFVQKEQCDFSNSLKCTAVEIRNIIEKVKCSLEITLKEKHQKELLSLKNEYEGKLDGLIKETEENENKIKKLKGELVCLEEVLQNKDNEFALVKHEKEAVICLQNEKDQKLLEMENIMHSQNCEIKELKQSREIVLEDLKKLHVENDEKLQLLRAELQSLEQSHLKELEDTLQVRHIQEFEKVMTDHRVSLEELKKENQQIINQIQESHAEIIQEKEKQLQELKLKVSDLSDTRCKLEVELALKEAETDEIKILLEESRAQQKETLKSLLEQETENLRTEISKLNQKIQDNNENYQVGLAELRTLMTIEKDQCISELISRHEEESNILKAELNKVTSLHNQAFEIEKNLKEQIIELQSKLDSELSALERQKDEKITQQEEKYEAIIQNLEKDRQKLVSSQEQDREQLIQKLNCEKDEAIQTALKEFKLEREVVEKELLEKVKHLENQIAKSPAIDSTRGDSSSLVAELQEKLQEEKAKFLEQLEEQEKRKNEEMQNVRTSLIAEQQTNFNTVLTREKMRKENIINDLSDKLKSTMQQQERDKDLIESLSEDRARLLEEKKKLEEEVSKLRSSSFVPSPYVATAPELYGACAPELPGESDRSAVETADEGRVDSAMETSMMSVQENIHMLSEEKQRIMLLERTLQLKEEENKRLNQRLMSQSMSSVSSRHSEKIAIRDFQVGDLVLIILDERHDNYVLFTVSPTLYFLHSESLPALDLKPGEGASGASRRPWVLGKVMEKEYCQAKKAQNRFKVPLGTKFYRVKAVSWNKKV
UniProt P28482: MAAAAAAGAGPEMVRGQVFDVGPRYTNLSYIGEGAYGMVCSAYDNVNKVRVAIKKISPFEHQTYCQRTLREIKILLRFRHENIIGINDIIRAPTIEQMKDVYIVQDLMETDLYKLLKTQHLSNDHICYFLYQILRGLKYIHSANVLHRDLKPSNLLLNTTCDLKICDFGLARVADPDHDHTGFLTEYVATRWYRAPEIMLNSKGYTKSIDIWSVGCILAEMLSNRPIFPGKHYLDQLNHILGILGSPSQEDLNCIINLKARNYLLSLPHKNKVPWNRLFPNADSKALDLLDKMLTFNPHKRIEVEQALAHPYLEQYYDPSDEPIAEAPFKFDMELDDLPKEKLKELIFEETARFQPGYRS

T1: FLAG-tagged mULK1 (mULK1-3×FLAG) (mouse) (UniProt O70405)
T1 sequence: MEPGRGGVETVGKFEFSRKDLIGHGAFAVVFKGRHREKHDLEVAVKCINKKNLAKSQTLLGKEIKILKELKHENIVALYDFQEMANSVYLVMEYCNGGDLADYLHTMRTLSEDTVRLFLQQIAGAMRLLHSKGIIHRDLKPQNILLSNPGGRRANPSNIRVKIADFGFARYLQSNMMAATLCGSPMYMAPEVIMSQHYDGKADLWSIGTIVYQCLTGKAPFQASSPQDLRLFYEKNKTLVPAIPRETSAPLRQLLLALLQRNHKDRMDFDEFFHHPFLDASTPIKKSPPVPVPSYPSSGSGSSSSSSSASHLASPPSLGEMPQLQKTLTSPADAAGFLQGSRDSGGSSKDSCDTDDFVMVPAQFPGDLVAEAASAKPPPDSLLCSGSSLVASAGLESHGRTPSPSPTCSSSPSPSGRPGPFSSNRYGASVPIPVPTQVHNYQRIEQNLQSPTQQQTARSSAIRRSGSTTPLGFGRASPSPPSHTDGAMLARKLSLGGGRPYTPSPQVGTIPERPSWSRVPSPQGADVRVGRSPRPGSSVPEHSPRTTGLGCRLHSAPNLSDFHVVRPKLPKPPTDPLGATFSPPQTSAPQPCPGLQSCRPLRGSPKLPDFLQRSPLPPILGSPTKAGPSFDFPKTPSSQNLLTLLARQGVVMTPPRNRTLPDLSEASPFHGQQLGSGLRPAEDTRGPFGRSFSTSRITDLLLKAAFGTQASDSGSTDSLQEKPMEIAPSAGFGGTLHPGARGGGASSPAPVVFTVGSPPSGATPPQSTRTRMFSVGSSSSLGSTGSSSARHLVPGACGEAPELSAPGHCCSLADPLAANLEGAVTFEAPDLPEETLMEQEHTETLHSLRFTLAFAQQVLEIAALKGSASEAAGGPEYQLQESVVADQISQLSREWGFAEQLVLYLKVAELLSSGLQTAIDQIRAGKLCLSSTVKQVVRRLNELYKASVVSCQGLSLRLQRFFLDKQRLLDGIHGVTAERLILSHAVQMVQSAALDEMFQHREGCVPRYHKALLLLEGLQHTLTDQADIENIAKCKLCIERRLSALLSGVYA

T2: FLAG-tagged ATG13 (human) (UniProt O75143)
T2 sequence: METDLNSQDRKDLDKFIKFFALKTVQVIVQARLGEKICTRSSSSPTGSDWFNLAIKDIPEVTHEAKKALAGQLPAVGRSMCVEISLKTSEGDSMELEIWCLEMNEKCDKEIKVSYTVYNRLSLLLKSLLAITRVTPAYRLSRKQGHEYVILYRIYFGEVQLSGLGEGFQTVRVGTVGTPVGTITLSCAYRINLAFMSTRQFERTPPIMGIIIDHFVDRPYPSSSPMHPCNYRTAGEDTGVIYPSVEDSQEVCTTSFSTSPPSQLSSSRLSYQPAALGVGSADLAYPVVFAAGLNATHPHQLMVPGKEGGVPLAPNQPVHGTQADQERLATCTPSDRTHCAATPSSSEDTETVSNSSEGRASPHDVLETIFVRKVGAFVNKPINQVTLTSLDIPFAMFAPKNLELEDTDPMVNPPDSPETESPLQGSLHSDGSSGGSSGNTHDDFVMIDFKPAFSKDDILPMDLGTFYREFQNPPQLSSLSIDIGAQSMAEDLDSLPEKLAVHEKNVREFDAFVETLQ

B1: Aurora A (enzyme, UniProt O14965 1-403)
chain: MDRSKENCISGPVKATAPVGGPKRVLVTQQFPCQNPLPVNSGQAQRVLCPSNSSQRIPLQAQKLVSSHKPVQNQKQKQLQATSVPHPVSRPLNNTQKSKQPLPSAPENNPEEELASKQKNEESKKRQWALEDFEIGRPLGKGKFGNVYLAREKQSKFILALKVLFKAQLEKAGVEHQLRREVEIQSHLRHPNILRLYGYFHDATRVYLILEYAPLGTVYRELQKLSKFDEQRTATYITELANALSYCHSKRVIHRDIKPENLLLGSAGELKIADFGWSVHAPSSRRTTLCGTLDYLPPEMIEGRMHDEKVDLWSLGVLCYEFLVGKPPFEANTYQETYKRISRVEFTFPDFVTEGARDLISRLLKHNPSQRPMLREVLEHPWITANSSKPSNCQNKESASKQS

Experiments:
[1] = biological target: T1, FLAG-tagged mULK1 (mULK1-3×FLAG) (mouse); assay: co-IP
[2] = biological target: T2, FLAG-tagged ATG13 (human); assay: co-IP

Molecule	binding [1]	binding [2]
MAPK3 (from UniProt P27361 1-379) (enzyme)	no binding	–
cyclin B1 (from UniProt P14635 1-433)	binds	binds
FIP200 (from UniProt Q8TDY2 1-1594)	binds	–
MAPK1 (from UniProt P28482 1-360) (enzyme)	no binding	–
B1	no binding	–
